No constants are given. Whether binding was seen depends on the method and setting. In cells and extracts the contact can be indirect. A yes stands for co-enrichment or nearness to the bait. Other partners may have been found.
Target: T1, Sgf11 (Drosophila (endogenous in embryos)) (UniProt Q9VVR6)
T1 sequence: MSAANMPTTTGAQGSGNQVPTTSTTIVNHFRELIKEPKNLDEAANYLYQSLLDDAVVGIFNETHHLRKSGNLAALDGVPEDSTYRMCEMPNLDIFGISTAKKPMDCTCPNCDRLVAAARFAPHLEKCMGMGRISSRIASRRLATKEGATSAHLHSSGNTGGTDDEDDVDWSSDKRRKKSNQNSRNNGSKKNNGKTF
Assay: affinity purification with mass spectrometry; stepwise chromatography of embryonic nuclear extract, Superose 6 fractions 33-35 (about 100 kDa) loaded on immobilised anti-Sgf11 antibodies, washed with HEMG-500 with 0.1% NP-40, eluted with acid glycine; SDS-PAGE, Coomassie, MALDI-TOF MS; control with IgG

B1: cap-binding protein 80 (Cbp80) (protein, UniProt Q7K4N3 1-800)
chain: MSRRRAHDTEDEGYDHRRNKRRRVSENQEIEDRLESLILRVGERSTSSVESNLEGLVSVLEADLGTFRLKILRILSDCAVRMPEKCTVYTTLVGLLNAKNYKFGGEFVDHMVKTFKESLKMCRWDAARYSLRFLADLVNCHVISATSLLQLLDTMIDVSNEDTVPQVRRDWFVFAVLSTLPWVGRDLYEKKESALESLLLRIEVYLNKRSKKHHNALRVWSSDAPHPQEEYLDCLWAQIRKLRQDNWAEKHIPRPYLVFDSILCEALQHNLPTIVPPPHHDNFEYPMPWVVYRMFDYTDCPDGPNLPGAHSIERFLIEEHLHHIIETYHHERKDCAAQLLSFPYKHKIPLEYCIVEVVFAELFHMPTPRYLDICYGSILIELCKLQPATLPQVLAQATEILFMRIDSMNTSCFDRFVNWFSYHLSNFKFTWSWDEWDSCLLLDGEHPRPKFIQEVLQKCLRLSYHQRITEMMPTTYAKLIPLTPVPNYKYANEEAANLPGTTVAHQLVVAIRQKCTPEEVVNILKDIPNSGYSGEEMSDGSFNALKIDVFVQTLLNLGSKSFSHSFAAISKFHSVFRALAETEEAQICILHNIFELWSSHQQMMVVLIDKLLKLQIVDCSAVATWIFSKEMTGEFTKLYLWEILHLTIKKMNKHVIKLNTELSEAKEKLAKADSSSSDSEDDSSHKRKKPITHADKPSEEVVERMEEKLEAANVNQKRLFLIVFQRFIMILSEHLLRSDTDGRDPDTDWYRWTIGRLQQVFLMHHEQVQKYSSTLETLLFTSDLDTHILEVFQQFVALRA
binding: binds
